From publication PMC11005723, “Development of Complementary Photo‐arginine/lysine to Promote Discovery of Arg/Lys hPTMs Interactomes” (Advanced Science, 2024)
This continues a long series; more values of the same kind are listed elsewhere.

System: HEK293T nuclear lysates
Assay: SILAC‐based pull‐down proteomics H4K5me2/H4K5 (probes 7/5)
Format: binding, human
Conditions: for F6 log2 (H4K5me2/H4K5): run F6; for E6 log2 (H4K5me2/H4K5): run E6

probe 7: H4K5me2 peptide probe with photo‐arginine R(dz) and K(biotin) (SGRGKGGKGLGKGGK; photo-arginine R(dz) at 3; dimethyl-lysine at 5; K(biotin) at 15)
F6 log2 (H4K5me2/H4K5) (protein P50990 CCT8): 0.3492 | E6 log2 (H4K5me2/H4K5) (protein P52701 MSH6): 0.2964 | F6 log2 (H4K5me2/H4K5) (protein P52701 MSH6): 0.1666 | E6 log2 (H4K5me2/H4K5) (protein P56545 CTBP2): 0.3739 | F6 log2 (H4K5me2/H4K5) (protein P56545 CTBP2): 0.4212 | E6 log2 (H4K5me2/H4K5) (protein P60174 TPI1): 0.243 | F6 log2 (H4K5me2/H4K5) (protein P60174 TPI1): 0.3241 | E6 log2 (H4K5me2/H4K5) (protein P60709 ACTB): 0.2405 | F6 log2 (H4K5me2/H4K5) (protein P60709 ACTB): 0.08858 | E6 log2 (H4K5me2/H4K5) (protein P60842 EIF4A1): 0.348 | F6 log2 (H4K5me2/H4K5) (protein P60842 EIF4A1): 0.4523 | E6 log2 (H4K5me2/H4K5) (protein P61978 HNRNPK): 0.2874 | F6 log2 (H4K5me2/H4K5) (protein P61978 HNRNPK): 0.2631 | E6 log2 (H4K5me2/H4K5) (protein P63104 YWHAZ): 0.3421 | F6 log2 (H4K5me2/H4K5) (protein P63104 YWHAZ): 0.02806 | E6 log2 (H4K5me2/H4K5) (protein P63241 EIF5A): 0.2374 | F6 log2 (H4K5me2/H4K5) (protein P63241 EIF5A): 0.1264 | E6 log2 (H4K5me2/H4K5) (protein P68366 TUBA4A): 0.23 | F6 log2 (H4K5me2/H4K5) (protein P68366 TUBA4A): 0.05704 | E6 log2 (H4K5me2/H4K5) (protein P78527 PRKDC): 0.279 | F6 log2 (H4K5me2/H4K5) (protein P78527 PRKDC): 0.2967 | E6 log2 (H4K5me2/H4K5) (protein Q1KMD3 HNRNPUL2): 0.3577 | F6 log2 (H4K5me2/H4K5) (protein Q1KMD3 HNRNPUL2): 0.1623 | E6 log2 (H4K5me2/H4K5) (protein Q5T760 SFRS11): 0.3801 | F6 log2 (H4K5me2/H4K5) (protein Q5T760 SFRS11): 0.2959 | E6 log2 (H4K5me2/H4K5) (protein Q8N1G2 FTSJD2): 0.196 | F6 log2 (H4K5me2/H4K5) (protein Q8N1G2 FTSJD2): 0.2886 | E6 log2 (H4K5me2/H4K5) (protein Q8N3X1 FNBP4): 0.2598 | F6 log2 (H4K5me2/H4K5) (protein Q8N3X1 FNBP4): 0.34 | E6 log2 (H4K5me2/H4K5) (protein Q8TAQ2 SMARCC2): 0.2631 | F6 log2 (H4K5me2/H4K5) (protein Q8TAQ2 SMARCC2): 0.08408 | E6 log2 (H4K5me2/H4K5) (protein Q9BSD7 NTPCR): 0.278 | F6 log2 (H4K5me2/H4K5) (protein Q9BSD7 NTPCR): 0.2018 | E6 log2 (H4K5me2/H4K5) (protein Q9BWF3 RBM4): 0.3706 | F6 log2 (H4K5me2/H4K5) (protein Q9BWF3 RBM4): 0.1463 | E6 log2 (H4K5me2/H4K5) (protein Q9C0J8 WDR33): 0.2021 | F6 log2 (H4K5me2/H4K5) (protein Q9C0J8 WDR33): -0.3674 | E6 log2 (H4K5me2/H4K5) (protein Q9HB71 CACYBP): 0.274 | F6 log2 (H4K5me2/H4K5) (protein Q9HB71 CACYBP): 0.1197 | E6 log2 (H4K5me2/H4K5) (protein Q9HC35 EML4): 0.293 | F6 log2 (H4K5me2/H4K5) (protein Q9HC35 EML4): 0.4673 | E6 log2 (H4K5me2/H4K5) (protein Q9NQW6 ANLN): 0.3075 | F6 log2 (H4K5me2/H4K5) (protein Q9NQW6 ANLN): 0.626 | E6 log2 (H4K5me2/H4K5) (protein Q9NSD9 FARSB): 0.3373 | F6 log2 (H4K5me2/H4K5) (protein Q9NSD9 FARSB): -0.2354 | E6 log2 (H4K5me2/H4K5) (protein Q9NW13 RBM28): 0.2631 | F6 log2 (H4K5me2/H4K5) (protein Q9NW13 RBM28): -0.251 | E6 log2 (H4K5me2/H4K5) (protein Q9UBD5 ORC3): 0.3325 | F6 log2 (H4K5me2/H4K5) (protein Q9UBD5 ORC3): 0.2093 | E6 log2 (H4K5me2/H4K5) (protein Q9UHD1 CHORDC1): 0.2778 | F6 log2 (H4K5me2/H4K5) (protein Q9UHD1 CHORDC1): 0.09315 | E6 log2 (H4K5me2/H4K5) (protein Q9UKN8 GTF3C4): 0.2915 | F6 log2 (H4K5me2/H4K5) (protein Q9UKN8 GTF3C4): 0.4741 | E6 log2 (H4K5me2/H4K5) (protein Q9UQ80 PA2G4): 0.3379 | F6 log2 (H4K5me2/H4K5) (protein Q9UQ80 PA2G4): 0.3475 | E6 log2 (H4K5me2/H4K5) (protein Q9Y3I0 C22orf28): 0.2896 | F6 log2 (H4K5me2/H4K5) (protein Q9Y3I0 C22orf28): 0.3483 | E6 log2 (H4K5me2/H4K5) (protein Q9Y6W5 WASF2): 0.2111 | F6 log2 (H4K5me2/H4K5) (protein Q9Y6W5 WASF2): 0.1053 | E6 log2 (H4K5me2/H4K5) (protein Q9Y6X8 ZHX2): 0.187 | F6 log2 (H4K5me2/H4K5) (protein Q9Y6X8 ZHX2): -0.2081 | E6 log2 (H4K5me2/H4K5) (protein Q9Y265 RUVBL1): 0.1875 | F6 log2 (H4K5me2/H4K5) (protein Q9Y265 RUVBL1): -0.1779 | E6 log2 (H4K5me2/H4K5) (protein Q29RF7 PDS5A): 0.2478 | F6 log2 (H4K5me2/H4K5) (protein Q29RF7 PDS5A): 0.1704 | E6 log2 (H4K5me2/H4K5) (protein Q52LJ0-2 FAM98B): 0.3677 | F6 log2 (H4K5me2/H4K5) (protein Q52LJ0-2 FAM98B): -0.205 | E6 log2 (H4K5me2/H4K5) (protein Q86UE8 TLK2): 0.3586 | F6 log2 (H4K5me2/H4K5) (protein Q86UE8 TLK2): -0.4255 | E6 log2 (H4K5me2/H4K5) (protein Q96JB3 HIC2): 0.2025 | F6 log2 (H4K5me2/H4K5) (protein Q96JB3 HIC2): 0.2964 | E6 log2 (H4K5me2/H4K5) (protein Q96T88 UHRF1): 0.2877 | F6 log2 (H4K5me2/H4K5) (protein Q96T88 UHRF1): 0.06687 | E6 log2 (H4K5me2/H4K5) (protein Q07955 SRSF1): 0.3266 | F6 log2 (H4K5me2/H4K5) (protein Q07955 SRSF1): 0.005776 | E6 log2 (H4K5me2/H4K5) (protein Q08170 SRSF4): 0.3831 | F6 log2 (H4K5me2/H4K5) (protein Q08170 SRSF4): -0.146 | E6 log2 (H4K5me2/H4K5) (protein Q10570 CPSF1): 0.2478 | F6 log2 (H4K5me2/H4K5) (protein Q10570 CPSF1): 0.1414 | E6 log2 (H4K5me2/H4K5) (protein Q12789 GTF3C1): 0.209 | F6 log2 (H4K5me2/H4K5) (protein Q12789 GTF3C1): 0.2928 | E6 log2 (H4K5me2/H4K5) (protein Q12996 CSTF3): 0.2524 | F6 log2 (H4K5me2/H4K5) (protein Q12996 CSTF3): -0.3083 | E6 log2 (H4K5me2/H4K5) (protein Q13123 IK): 0.2579 | F6 log2 (H4K5me2/H4K5) (protein Q13123 IK): 0.2112 | E6 log2 (H4K5me2/H4K5) (protein Q13263 TRIM28): 0.3148 | F6 log2 (H4K5me2/H4K5) (protein Q13263 TRIM28): 0.2619 | E6 log2 (H4K5me2/H4K5) (protein Q14204 DYNC1H1): 0.2946 | F6 log2 (H4K5me2/H4K5) (protein Q14204 DYNC1H1): 0.3599 | E6 log2 (H4K5me2/H4K5) (protein Q14566 MCM6): 0.274 | F6 log2 (H4K5me2/H4K5) (protein Q14566 MCM6): 0.258 | E6 log2 (H4K5me2/H4K5) (protein Q14974 KPNB1): 0.237 | F6 log2 (H4K5me2/H4K5) (protein Q14974 KPNB1): 0.101 | E6 log2 (H4K5me2/H4K5) (protein Q15233 NONO): 0.1849 | F6 log2 (H4K5me2/H4K5) (protein Q15233 NONO): 0.2662 | E6 log2 (H4K5me2/H4K5) (protein Q15365 PCBP1): 0.2125 | F6 log2 (H4K5me2/H4K5) (protein Q15365 PCBP1): 0.1048 | E6 log2 (H4K5me2/H4K5) (protein Q15393 SF3B3): 0.2478 | F6 log2 (H4K5me2/H4K5) (protein Q15393 SF3B3): 0.1091 | E6 log2 (H4K5me2/H4K5) (protein Q15398 DLGAP5): 0.1992 | F6 log2 (H4K5me2/H4K5) (protein Q15398 DLGAP5): 0.1203 | E6 log2 (H4K5me2/H4K5) (protein Q16531 DDB1): 0.3498 | F6 log2 (H4K5me2/H4K5) (protein Q16531 DDB1): 0.212 | E6 log2 (H4K5me2/H4K5) (protein Q92541 RTF1): 0.1798 | F6 log2 (H4K5me2/H4K5) (protein Q92541 RTF1): -0.05357 | E6 log2 (H4K5me2/H4K5) (protein Q92576 PHF3): 0.2562 | F6 log2 (H4K5me2/H4K5) (protein Q92576 PHF3): 0.4074 | E6 log2 (H4K5me2/H4K5) (protein Q92973 TNPO1): 0.2351 | F6 log2 (H4K5me2/H4K5) (protein Q92973 TNPO1): 0.2132 | E6 log2 (H4K5me2/H4K5) (protein Q99661 KIF2C): 0.3767 | F6 log2 (H4K5me2/H4K5) (protein Q99661 KIF2C): 0.2802
